The values that follow come from PubChem BioAssay AID200 (DTP/NCI, 2004).

The test system of the assay is B6C3F1 mice, B16 melanoma ip, median survival T/C. The experiment in a line: NCI In Vivo Anticancer Drug Screen. Data for tumor model B16 Melanoma (intraperitoneal) in B6C3F1 mice. The following applies: T/C endpoint: median survival time, higher T/C = longer survival. As to the method: The antitumor activity of compounds was measured in mice bearing transplantable tumors. Survival or tumor size were measured and the results are expressed as the measurement made in the treated group (T) divided by the measurement made in the vehicle treated control group (C). The tumor model used in this assay is B16 Melanoma (intraperitoneal) in B6C3F1 mice

Setting [1] is: dose: 200.0 mg/kg/injection, schedule: Q01DX001 (ip), vehicle: saline.
The mark [2] stands for this setting: dose: 200.0 mg/kg/injection, schedule: Q01DX009 (ip), vehicle: saline.

The structures appear in SMILES notation. The list does not hold the whole screen: it gathers tests that were run many times, whatever their T/C, doses with no T/C, and many T/C values between a quarter and a half above the control. Other doses and runs of a compound stand elsewhere. T/C is the treated group as % of the vehicle group. Some doses have a count of surviving animals in place of a T/C: the source files T/C as zero there, which appears to mark a toxic dose or a test without result, not a measured value. Some survivor counts are full or nearly so, which does not show that the dose was tolerated: survival well below the control is almost never listed, so the zero probably covers shortened survival too. Counts of survivors are from the toxicity check (mostly the fifth day) where no day follows; animals may have died later. Schedule codes are those of the source, read here as Q, the interval in days (D) or hours (H), X, the number of doses. Some entries were tested several times; the values are given in rising order. For survival time, the PubChem record calls one and a half times the control and up active, and a quarter to a half above the control has no call in these data; cut-offs in other NCI protocols can differ.

As for `COc1nc(C(Cl)(Cl)Cl)c(Cl)c(OC)c1Cl`, the survivor count is listed as 9 of 10 (dose: 100.0 mg/kg/injection, schedule: Q01DX009 (ip), vehicle: Klucel (hydroxypropylcellulose) (HPC)); 10 of 10 (dose: 200.0 mg/kg/injection, schedule: Q01DX009 (ip), vehicle: Klucel (hydroxypropylcellulose) (HPC)); 4 of 10 (dose: 400.0 mg/kg/injection, schedule: Q01DX009 (ip), vehicle: Klucel (hydroxypropylcellulose) (HPC)).

As to `C=C(C)/C([O-])=N/[N+](C)(C)CC(O)CCCCCCCCCCCC` (configuration not stated), the survivor count under setting [1] was 10 of 10; the survivor count (dose: 400.0 mg/kg/injection, schedule: Q01DX001 (ip), vehicle: saline) was 4 of 10 and 5 of 10; the survivor count (dose: 800.0 mg/kg/injection, schedule: Q01DX001 (ip), vehicle: saline) is on record as 0 of 10.

Regarding `CN1C(=O)C(=Cc2ccc(O)cc2)C(=O)N(C)C1=O`, under “dose: 400.0 mg/kg/injection, schedule: Q01DX009 (ip), vehicle: saline with Tween-80”, the survivor count is on record as 8 of 10.

For the molecule `COc1cccc2c1C(=O)c1c(O)c3c(c(O)c1C2=O)C[C@@](O)(C(=O)CO)C[C@@H]3OC1CC(NC(=O)C(N)CC(C)C)C(O)C(C)O1` (some centres not stated), the survivor count runs as follows: (dose: 100.0 mg/kg/injection, schedule: Q01DX001 (ip), vehicle: saline) 8 of 10; under setting [1], 2 of 10.

Regarding `C[CH2][Pb]([CH2]C)([CH2]C)[O]C(=O)COc1ccccc1`, the survivor count (dose: 12.0 mg/kg/injection, schedule: Q01DX009 (ip), vehicle: Klucel (hydroxypropylcellulose) (HPC)) is 5 of 10.

For the molecule `C=C1C(=O)C2=CC1CCC(=O)C1(C)CCC(OC(C)=O)C(C)(C)C1CC2O` (configuration not stated), the survivor count (dose: 60.0 mg/kg/injection, schedule: Q01DX009 (ip), vehicle: Klucel (hydroxypropylcellulose) (HPC)) was 6 of 10 and 8 of 10; the survivor count (dose: 120.0 mg/kg/injection, schedule: Q01DX009 (ip), vehicle: Klucel (hydroxypropylcellulose) (HPC)) is 0 of 10.

As to `COc1cc(C2c3cc4c(cc3[C@@H](OC3OC5CO[C@@H](C)OC5C(O)C3O)[C@H]3COC(=O)C23)OCO4)cc(OC)c1OC` (some centres not stated), the T/C runs as follows: (dose: 12.5 mg/kg/injection, schedule: Q01DX009 (ip), vehicle: saline) 128 % of control; (dose: 36.0 mg/kg/injection, schedule: Q01DX009 (ip), vehicle: suspension in saline) 139 % of control. The survivor count (dose: 166.67 mg/kg/injection, schedule: Q01DX009 (ip), vehicle: suspension in saline) is 10 of 10 and the survivor count under setting [2] is recorded as 10 of 10.

In the case of `Cn1nnc2c(C(N)=O)ncn2c1=O`, the T/C was 139 % of control (dose: 25.0 mg/kg/injection, schedule: Q01DX009 (ip), vehicle: saline); 125 % of control (dose: 25.0 mg/kg/injection, schedule: Q01DX009 (ip), vehicle: suspension in saline); 139 % of control (dose: 50.0 mg/kg/injection, schedule: Q01DX009 (ip), vehicle: saline). In addition, the survivor count was 10 of 10 under setting [2]; 10 of 10 (dose: 200.0 mg/kg/injection, schedule: Q01DX009 (ip), vehicle: suspension in saline); 9 of 10 (dose: 400.0 mg/kg/injection, schedule: Q01DX009 (ip), vehicle: saline).
